In all, about 220,000 compounds went through this assay and about 770 (0.35%) were called active. Inconclusive results, whose numbers are uncertain, are shown with a selection of clear calls. No stated cut-off is given here; in the data, active means binding response below about 49% or above about 150%; inconclusive means no clear call, values can overlap the other calls; inactive means in between.
Molecular target: Guanine nucleotide-binding protein G(o) subunit alpha (Homo sapiens) (UniProt P09471)
Experiment: RGS7-Galphao binding modulators, primary screen, biochemical, multiplexed bead flow cytometry (AID 1439);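 further: fluorescent Galphao held in activated GDP-AlF4 state binding bead-coupled RGS7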
Details: at 10 µM, actives lie on both sides

Protein sequences, listed by entry. Tags and fused reporters are not part of them.
UniProt P09471, whole entry, looked up: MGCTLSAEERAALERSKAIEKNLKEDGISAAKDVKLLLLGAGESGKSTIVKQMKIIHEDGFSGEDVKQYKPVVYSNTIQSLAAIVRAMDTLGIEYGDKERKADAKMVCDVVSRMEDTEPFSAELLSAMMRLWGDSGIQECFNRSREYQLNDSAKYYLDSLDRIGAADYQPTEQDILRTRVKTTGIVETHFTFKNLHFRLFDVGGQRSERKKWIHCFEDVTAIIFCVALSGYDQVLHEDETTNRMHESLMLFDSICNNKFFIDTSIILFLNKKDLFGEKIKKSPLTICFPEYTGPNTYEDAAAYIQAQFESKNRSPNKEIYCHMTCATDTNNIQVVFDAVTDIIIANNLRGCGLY

Compound | binding response (% of control)
O=C(COC(=O)CCSc1ccccc1)NCc1ccc(F)cc1 | inactive: 97.7%
c1ccc(-c2onc3c2CCCC3)cc1 | inactive: 110%
COC(=O)c1[nH]c2cccc(Cl)c2c1NC(=O)CN1CCCCC1C (centres undefined) | inactive: 95%
CSc1ccccc1NC(=O)CSc1nncs1 | inconclusive: 111%
O=C(Cn1nc(C(=O)O)c2ccccc2c1=O)NC12CC3CC(CC(C3)C1)C2 | inconclusive: 99.4%
Cc1onc(-c2ccccc2)c1C(=O)N1CCOC12CCN(c1cccc(F)n1)CC2 | inconclusive: 93.6%
CC(C)N1CCN(Cc2ccc(C#CC(C)(C)O)s2)CC1CCO (centres undefined) | inactive: 98.6%
O=C(N/N=C/C=C\c1ccc([N+](=O)[O-])cc1)c1cccnc1 | inconclusive: 100%
Nc1ccc(-c2nc3cc(N)ccc3n2CCO)cc1 | inconclusive: 81.6%
CN1C(=O)[C@@H]2[C@@H]3C[C@@H]([C@H]4ON=C(c5ccccc5OCC#N)[C@@H]34)[C@@H]2C1=O | inconclusive: -506%
O=C(COc1ccc([N+](=O)[O-])cc1)Nn1cnnc1 | inactive: 104%
COc1cccc(C(=O)n2ccc(-c3cccs3)n2)c1 | inconclusive: 101%
COC(=O)c1sccc1NC(=O)CC1C(=O)NCCN1C(=O)Nc1cc(Cl)ccc1OC (centres undefined) | inconclusive: 115%
O=C(Cc1cccs1)Nc1nnc(C2CC2)s1 | inconclusive: 89.2%
CCOc1ccc(Nc2nc(N)nc(CCl)n2)cc1 | inconclusive: 107%
Cc1cccc(NC(=O)CCn2ccnc2C)c1 | active: 16.1%
Nc1nn(-c2cccc(F)n2)cc1-c1ccc(Cl)cc1 | inconclusive: 104%
COc1ccc(OC)c(Nc2nc(N)c([N+](=O)[O-])c(NCc3ccccc3)n2)c1 | inconclusive: 84%
Cc1nc2ccccc2c(=O)n1N(c1ccccc1)c1ccccc1 | inconclusive: 137%
O=C(CSc1nnc2c(Cl)cc(Cl)cn12)N1CCN(c2ccc(F)cc2)CC1 | inactive: 96.6%
Cc1ccc(C(=O)NNC(=O)/C=C\C(=O)O)cc1 | inconclusive: 87%
COC(=O)/C=c1\[nH]c2nnc(C)n2c1=O | inconclusive: 79.9%
CCC(C)[C@H](NC(=O)NCc1cccnc1)C(=O)OC (some centres undefined) | inconclusive: 56.1%
COc1ccc2oc(=Nc3cccc(F)c3)c(C(N)=O)cc2c1 | inconclusive: 112%

Compound | binding response (% of control)
O=c1ccc2cc(O)c(O)cc2o1 | inactive: 57.6%
O=[N+]([O-])c1ccc(N/N=C/c2cccc(O)c2O)c(S(=O)(=O)N2CCOCC2)c1 | inconclusive: 92.3%
CC(C)NC(=O)NC(=O)CSc1ncccn1 | inconclusive: 112%
CC(=O)Nc1ccc2nsnc2c1 | inconclusive: 62.4%
Cc1cc(-c2n[nH]c(=S)n2/N=C/c2cccc(O)c2)n[nH]1 | inconclusive: -522%
Cc1cccc(NC(=S)N(C)C2CCCCC2)c1 | inconclusive: 106%
CCN(CC)CCCNC(=O)C(C)Sc1nc(-c2ccccc2)cc(C(F)(F)F)n1 (centres undefined) | inconclusive: 103%
O=C(Cc1ccccc1)NCc1ccc(-n2cccc2)cc1 | inconclusive: 106%
O=C(Nc1cccnc1Cl)c1ccc(=O)oc1 | inconclusive: 100%
CCOc1ccc(NC(=O)c2cc(Cl)nc3ccccc23)cc1 | inconclusive: 46.1%
CC1(C)Cc2nc3sc4c(NCCO)ncnc4c3cc2CS1 | inconclusive: 136%
Cc1nnnn1CC(=O)Nc1cccc([N+](=O)[O-])c1 | inconclusive: 105%
O=C(O)CSCC(=O)NCc1csc2ccc(Cl)cc12 | inconclusive: 85.5%
O=C(O)COc1ccccc1/C=N/NC(=O)CSc1nc2ccccc2c(=O)n1-c1ccccc1 | inconclusive: 93.9%
Cc1onc(-c2c(Cl)cccc2Cl)c1C(=O)NCCN1CCOCC1 | inactive: 99.9%
O=C(N/N=C/c1cccc2nccnc12)c1ccccc1O | inconclusive: 126%
CCOC(=O)C(CSCc1ccccc1)NC(=O)OC(C)(C)C (centres undefined) | inactive: 97.8%
CCCCC/S(CC1CC1(Cl)Cl)=N\S(=O)(=O)c1ccc(C)cc1 (centres undefined) | inactive: 97.8%
CCC(=O)Nc1nnc(SCC(=O)NCCc2ccc(OC)c(OC)c2)s1 | inconclusive: 130%
O=C(NNC(=S)NC1CC2CCC1C2)c1ccc(Cl)cc1 (centres undefined) | inconclusive: 60.1%
COc1ccc(/C=C/C(=O)N(C)c2ccccc2C(=O)O)cc1 | inactive: 99.5%
COc1ccc(NC(=O)C(=O)N/N=C/c2cccnc2)cc1 | inconclusive: 99%
Cc1ccc(N2CCN(/N=C/C(Cl)=C/c3ccccc3)CC2)cc1 | inconclusive: 93.8%
CCCCN1C(=O)N(C)C2NC(=O)NC21 (centres undefined) | inactive: 98.1%

Some values from the results shown:
Entry of CCCCC/S(CC1CC1(Cl)Cl)=N\S(=O)(=O)c1ccc(C)cc1 (centres undefined) under binding response (% of control): inactive: 97.8%
Entry of O=[N+]([O-])c1ccc(N/N=C/c2cccc(O)c2O)c(S(=O)(=O)N2CCOCC2)c1 under binding response (% of control): inconclusive: 92.3%
Entry of O=c1ccc2cc(O)c(O)cc2o1 under binding response (% of control): inactive: 57.6%
Entry of O=C(N/N=C/c1cccc2nccnc12)c1ccccc1O under binding response (% of control): inconclusive: 126%

Later entries:

Compound | binding response (% of control)
C=CCNC(=O)COC(=O)CCC(=O)c1cccs1 | inconclusive: 137%
CCOP(=O)(c1ccc(N(C)C)cc1)C(O)c1ccncc1 (centres undefined) | inconclusive: 96%
C[C@H](NC(=O)c1[nH]cnc1C(=O)Nc1ccc(CNC(=O)OC(C)(C)C)cc1)C(=O)OC(C)(C)C | inconclusive: 104%
COc1ccc(OC)c(/C=N/NC(=O)c2cc3c(OC)cccc3[nH]2)c1 | inconclusive: 68.3%
COC/C=C/C1=CC2=CC(=O)C(C)(OC(=O)c3cnc4ccccc4n3)C(=O)C2=CN1Cc1ccccc1 (centres undefined) | inconclusive: 7.11%
CC(=O)Nc1ccccc1OC(C)C(=O)N1CC(C)CC(C)C1 (centres undefined) | inconclusive: -149%
Cn1c(SCC(=O)NC(=O)Nc2ccccc2)nnc1-c1ccncc1 | inconclusive: 86.4%
CCCCC(=O)Nc1ccc2c(c1)nc(CCN1CCN(C)CC1)n2C | inconclusive: -567%
C=CCn1c(C)csc1=Nc1ccc(C(=O)O)cc1 | inconclusive: 95.6%
COc1ccc2[nH]c(C(=O)NCCN3CCCCC3)cc2c1 | inconclusive: 67.4%
CCCCN1C(=O)CC(Sc2ncccc2C(=O)O)C1=O (centres undefined) | inconclusive: 91.5%
O=C(N/N=C/C(Cl)=C\c1ccccc1)c1ccco1 | inconclusive: 58.6%
Cc1ccc(N(C(=O)C2COc3ccccc3O2)C(C(=O)NC2CCCCC2)c2cn(C)nc2C)cc1 (centres undefined) | inactive: 88.3%
CC(C)NC(=O)c1onc(CSc2cccc(Cl)c2)c1C(=O)O | inactive: 98.8%
CN(C(=O)c1c[nH]c(=O)cc1C(F)(F)F)c1ccc(Cl)cc1 | inconclusive: 96%
O=C(CC1(O)C(=O)N(Cc2ccccc2)c2ccccc21)c1ccncc1 (centres undefined) | inactive: 97.4%
CCOc1ccccc1NC(=O)CCn1cccc1 | inconclusive: 116%
COc1ccc(C(=O)c2ccc(OC)c(Br)c2)cc1Br | inactive: 120%
Cc1ccc(Cl)c(OC(=O)Cn2cnc3c2c(=O)n(C)c(=O)n3C)c1 | inactive: 101%
Cc1ccc(S(=O)(=O)NC(CC(=O)NCC2CCCO2)c2ccccc2)cc1 (centres undefined) | inconclusive: 117%
CCOCCCn1c(=NC(=O)c2ccco2)c(C(=O)OCC)cc2c(=O)n3cccc(C)c3nc21 | inconclusive: 98.5%
O=C(Cc1c[nH]c2ccccc12)OCCOC(=O)Cc1c[nH]c2ccccc12 | inactive: 95%
Cc1cccc(C)c1NC(=O)C(C)N1CCCCC1 (centres undefined) | inconclusive: 112%
CCC(C)(C(=O)Nc1c(C)cccc1C)N(C)C(=O)c1ccc2ccccc2n1 (centres undefined) | inconclusive: 112%

Compound | binding response (% of control)
O=C(OCC(=O)N1CCOCC1)c1ccc(N2CCOCC2)c([N+](=O)[O-])c1 | inactive: 102%
CCOC(=O)c1ccc(NC(=S)Nc2cccc(N)n2)cc1 | inconclusive: 83.8%
CCn1c(CNc2cccc(C(F)(F)F)c2)n[nH]c1=S | inactive: 104%
O=C1CCNc2c(Cl)cc(Cl)cc21 | inconclusive: 97%
CC(=O)c1cccc(NC(=O)C(=O)Nc2cccc3ccccc23)c1 | inactive: 102%
COc1ccc(/C=N/N=C2/C(=O)Nc3ccccc32)cc1O | inconclusive: 100%
O=C(OCC(=O)N1c2ccccc2Sc2ccccc21)c1cccnc1 | inconclusive: 106%
CCC(=O)N(C)CCc1cc2c(c(OC)c1/C=N/NC(=O)[C@H]1C[C@@H]1c1ccccc1)OCO2 | inconclusive: 110%
CCOC(=O)CN(C(=O)COc1nc(-c2ccccc2)cc(C)c1C#N)c1ccccc1 | inconclusive: -37.8%
CCN(CC)C(=N)/C(C#N)=N/Nc1ccccc1 | inconclusive: 197%
COc1ccc(S(=O)(=O)N2CCc3ccccc32)cc1NC(C)=O | inconclusive: 91.1%
CCCCCCNS(=O)(=O)c1ccc(NC(=O)C2CCCO2)cc1 (centres undefined) | inactive: 88.4%
CCOC(=O)/C(C#N)=C(C)/C=C1\Sc2ccccc2N1CC | inactive: 131%
CCC(C)(C)NC(=O)C(c1ccc(O)cc1)N(CCOC)C(=O)CCC(=O)Nc1nccs1 (centres undefined) | inconclusive: 95.8%
CC1=C(C(=O)Nc2ccccc2)C(c2ccc(Cl)cc2)n2c(s/c(=C/c3cccc(OCC(=O)O)c3)c2=O)=N1 (centres undefined) | inconclusive: 101%
Cc1ccccc1/C=C\c1nc2ccccc2c(=O)[nH]1 | inactive: 93.7%
Cc1ccc(S(=O)(=O)N(C)C)cc1NC(=O)C1CCCCC1 | inconclusive: 105%
COc1cc2[nH]c(=S)nc(NC3CCCC3)c2cc1OC | inactive: 101%
O=C(Nc1ccc2ccccc2c1)C(=O)C1C(=O)Nc2ccccc21 (centres undefined) | inconclusive: 103%
c1ccc(Oc2nc(-c3ccccn3)nc3ccccc23)cc1 | inconclusive: 101%
O=C(CN1C(=O)CC(c2ccccc2)=Nc2ccccc21)NCc1ccco1 | active: 1.56%
Nc1nonc1C(=O)N/N=C/c1ccc(-c2cccc(C(=O)O)c2)o1 | inactive: 98.3%

Reference: PubChem BioAssay AID1439 (NMMLSC, 2008)
